Legend:
[1] = Recording sensitivity test of dye film on polycarbonate substrate; settings: semiconductor laser center wavelength 404 nm, NA=0.85, dye film about 50 nm
[2] = Characteristics evaluation as optical recording medium (single-layer, HD DVD-R standard Ver. 1.0); settings: for optimum recording power / SbER (bit error rate) / PRSNR (Partial Response SNR): 405 nm; for optimum recording power: NA 0.65, linear velocity 6.61 m/s; for SbER (bit error rate): NA 0.65, standard 5.0×10^−5; for PRSNR (Partial Response SNR): NA 0.65, standard 15
[3] = Recording characteristics of two-layer optical recording medium (Layer 0 / Layer 1)

In the case of CCOC(=O)CC1=N[N+](=CC=C2N(C)c3ccccc3C2(C)C)[Co-2]2([O]1)[O]C(CC(=O)OCC)=N[N+]2=CC=C1N(C)c2ccccc2C1(C)C (stereo not shown) [Compound A-6], the “Maximum recording sensitivity at which formation of a recording pit was confirmed” value [1] is reported as 9.0 mW.
In the case of CCOC(=O)CC1=N[N+](=CC=C2N(CC)c3ccccc3C2(C)Cc2ccccc2)[Co-2]2([O]1)[O]C(CC(=O)OCC)=N[N+]2=CC=C1N(CC)c2ccccc2C1(C)Cc1ccccc1 (stereo not shown) [Compound A-11], the “Maximum recording sensitivity at which formation of a recording pit was confirmed” value [1] is reported as 7.0 mW.
For CCN1C(=CC=[N+]2N=C(c3ccccc3)[O][Co-2]23[O]C(c2ccccc2)=N[N+]3=CC=C2N(CC)c3ccc(OC)cc3C2(C)C)C(C)(C)c2cc(OC)ccc21 (stereo not shown) [Compound A-86], the recording mechanism [2] was “Low-To-High type”, the optimum recording power [2] was 10.0 mW and the “SbER (bit error rate)” value [2] was 1.10×10^−5. The “PRSNR (Partial Response SNR)” value [2] was 16.0.
With CCN1C(=CC=[N+]2N=C(c3cccc(OC)c3)[O][Co-2]23[O]C(c2cccc(OC)c2)=N[N+]3=CC=C2N(CC)c3ccc(OC)cc3C2(C)C)C(C)(C)c2cc(OC)ccc21 (stereo not shown) [Compound A-87] the recording mechanism [2] was “Low-to-High type”, the optimum recording power [2] was 10.5 mW and the “SbER (bit error rate)” value [2] was 1.50×10^−5. For the same compound, the “PRSNR (Partial Response SNR)” value [2] was 15.0.
For CCOc1ccccc1C1=N[N+](=CC=C2N(CC)c3c(ccc4ccccc34)C2(C)C)[Co-2]2([O]1)[O]C(c1ccccc1OCC)=N[N+]2=CC=C1N(CC)c2c(ccc3ccccc23)C1(C)C (stereo not shown) [Compound A-88], the recording mechanism [2] was “Low-to-High type”, the optimum recording power [2] was 10.0 mW and the “SbER (bit error rate)” value [2] was 4.50×10^−5. The “PRSNR (Partial Response SNR)” value [2] was 17.0.
For CCN1C(=CC=[N+]2N=C(c3ccccc3OC)[O][Co-2]23[O]C(c2ccccc2OC)=N[N+]3=CC=C2N(CC)c3ccc(OC)cc3C2(C)Cc2ccccc2)C(C)(Cc2ccccc2)c2cc(OC)ccc21 (stereo not shown) [Compound A-150], the recording mechanism [2] was “Low-to-High type”, the optimum recording power [2] was 7.5 mW and the “SbER (bit error rate)” value [2] was 2.60×10^−5. The “PRSNR (Partial Response SNR)” value [2] was 15.7.
With CCN1C(=CC=[N+]2N=C(c3ccc(C(=O)OC)cc3)[O][Co-2]23[O]C(c2ccc(C(=O)OC)cc2)=N[N+]3=CC=C2N(CC)c3ccc(OC)cc3C2(C)Cc2cccc(F)c2)C(C)(Cc2cccc(F)c2)c2cc(OC)ccc21 (stereo not shown) [Compound A-152] the recording mechanism [2] was “Low-to-High type”, the optimum recording power [2] was 5.8 mW and the “PRSNR (Partial Response SNR)” value [2] was 31.7. The recording mechanism ([3]; Layer 0 and Layer 1) was “Low-to-High type”, the PRNSR ([3]; Layer 1) was 24.0 and the SbER ([3]; Layer 1) was 4.3×10^−8. It also gave an optimum recording power ([3]; Layer 1) of 13.0 mW.
With CCN(CC)C(=O)c1ccc(C2=N[N+](=CC=C3N(CC)c4ccc(OC)cc4C3(C)Cc3ccccc3)[Co-2]3([O]2)[O]C(c2ccc(C(=O)N(CC)CC)cc2)=N[N+]3=CC=C2N(CC)c3ccc(OC)cc3C2(C)Cc2ccccc2)cc1 (stereo not shown) [Compound A-159] the recording mechanism [2] was “Low-to-High type”, the optimum recording power [2] was 6.0 mW and the “PRSNR (Partial Response SNR)” value [2] was 31.7.
For CCN1C(=CC=[N+]2N=C(c3ccc(C(=O)OC)cc3)[O][Co-2]23[O]C(c2ccc(C(=O)OC)cc2)=N[N+]3=CC=C2N(CC)c3ccc(OC)cc3C2(C)Cc2ccccc2)C(C)(Cc2ccccc2)c2cc(OC)ccc21 (stereo not shown) [Compound A-186], the recording mechanism [2] was “Low-to-High type”, the optimum recording power [2] was 6.6 mW and the “SbER (bit error rate)” value [2] was 5.60×10^−9. The “PRSNR (Partial Response SNR)” value [2] was 30.0.
With CCCN(CCC)S(=O)(=O)c1ccc(C2=N[N+](=CC=C3N(CC)c4ccc(OC)cc4C3(C)Cc3ccccc3)[Co-2]3([O]2)[O]C(c2ccc(S(=O)(=O)N(CCC)CCC)cc2)=N[N+]3=CC=C2N(CC)c3ccc(OC)cc3C2(C)Cc2ccccc2)cc1 (stereo not shown) [Compound A-211] the recording mechanism [2] was “Low-to-High type”, the optimum recording power [2] was 6.4 mW and the “SbER (bit error rate)” value [2] was 2.30×10^−9. For the same compound, the “PRSNR (Partial Response SNR)” value [2] was 28.3.
With CCN1C(=CC=[N+]2N=C(c3cccc(OCCOC)c3)[O][Co-2]23[O]C(c2cccc(OCCOC)c2)=N[N+]3=CC=C2N(CC)c3ccc(OC)cc3C2(C)Cc2ccccc2)C(C)(Cc2ccccc2)c2cc(OC)ccc21 (stereo not shown) [Compound A-212] the recording mechanism [2] was “Low-to-High type”, the optimum recording power [2] was 8.5 mW and the “SbER (bit error rate)” value [2] was 1.60×10^−7. The “PRSNR (Partial Response SNR)” value [2] was 31.3.
In the case of CN(C)c1ccc(C2=N/[N+](=C/c3ccccn3)[Co-2]3([O]2)[O]C(c2ccc(N(C)C)cc2)=N/[N+]3=C/c2ccccn2)cc1 [Compound B-4, reference compound], the recording mechanism [2] is reported as “Low-to-High type”, the optimum recording power [2] is reported as 9.2 mW and the “SbER (bit error rate)” value [2] is reported as 4.40×10^−4. The “PRSNR (Partial Response SNR)” value [2] was 10.0.
For [CH2-][N+]1=C\c2n(C)c3ccccc3[n+]2[Co-3]23([O]C(c4ccc(N(C)C)cc4)=N[N+]2=Cc2n(C)c4ccccc4[n+]23)[O]/C(c2ccc(N(C)C)cc2)=N\1 [Compound B-5, reference compound], the recording mechanism [2] was “Low-to-High type”, the optimum recording power [2] was 9.5 mW and the “SbER (bit error rate)” value [2] was 1.20×10^−4. For the same compound, the “PRSNR (Partial Response SNR)” value [2] was 12.0.
With [CH2-][N+](=C\C=C\c1ccc(N(CC)CC)cc1)/N=C(\[O][Co-]1[O]C(c2c(C)cc(C)cc2C)=N/[N+]1=C/C=C/c1ccc(N(CC)CC)cc1)c1c(C)cc(C)cc1C [Compound B-6, reference compound] the recording mechanism [2] was “Low-to-High type”, the optimum recording power [2] was 8.5 mW and the “SbER (bit error rate)” value [2] was 5.20×10^−4. The “PRSNR (Partial Response SNR)” value [2] was 8.5.
